Data reported in paper PMC10300261.

Sequences of proteins named here, by UniProt entry; tags and fusion partners are left off. Residues count along the entry.
UniProt P21453: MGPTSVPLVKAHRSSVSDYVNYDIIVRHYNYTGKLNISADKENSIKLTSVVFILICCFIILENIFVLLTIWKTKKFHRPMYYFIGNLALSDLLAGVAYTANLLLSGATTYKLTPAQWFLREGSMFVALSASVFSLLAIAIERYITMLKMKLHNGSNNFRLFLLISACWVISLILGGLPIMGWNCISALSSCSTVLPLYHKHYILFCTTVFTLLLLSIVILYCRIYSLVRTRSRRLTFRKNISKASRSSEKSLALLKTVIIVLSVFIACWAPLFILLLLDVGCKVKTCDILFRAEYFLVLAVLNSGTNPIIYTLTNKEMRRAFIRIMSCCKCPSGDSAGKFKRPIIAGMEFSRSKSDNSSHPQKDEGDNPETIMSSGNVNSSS
UniProt P26641: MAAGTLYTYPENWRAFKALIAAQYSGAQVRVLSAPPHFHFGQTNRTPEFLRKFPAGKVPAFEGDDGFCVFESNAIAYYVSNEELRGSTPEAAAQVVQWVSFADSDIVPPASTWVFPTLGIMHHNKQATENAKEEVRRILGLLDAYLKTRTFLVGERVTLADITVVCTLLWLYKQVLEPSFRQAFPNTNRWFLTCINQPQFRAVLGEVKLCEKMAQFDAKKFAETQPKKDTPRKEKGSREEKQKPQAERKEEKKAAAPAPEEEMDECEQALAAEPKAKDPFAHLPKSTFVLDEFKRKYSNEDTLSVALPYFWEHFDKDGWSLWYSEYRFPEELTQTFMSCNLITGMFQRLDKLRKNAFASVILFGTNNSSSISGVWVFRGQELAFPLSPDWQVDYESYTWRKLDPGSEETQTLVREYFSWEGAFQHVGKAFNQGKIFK
UniProt P17301, residues 30-1181: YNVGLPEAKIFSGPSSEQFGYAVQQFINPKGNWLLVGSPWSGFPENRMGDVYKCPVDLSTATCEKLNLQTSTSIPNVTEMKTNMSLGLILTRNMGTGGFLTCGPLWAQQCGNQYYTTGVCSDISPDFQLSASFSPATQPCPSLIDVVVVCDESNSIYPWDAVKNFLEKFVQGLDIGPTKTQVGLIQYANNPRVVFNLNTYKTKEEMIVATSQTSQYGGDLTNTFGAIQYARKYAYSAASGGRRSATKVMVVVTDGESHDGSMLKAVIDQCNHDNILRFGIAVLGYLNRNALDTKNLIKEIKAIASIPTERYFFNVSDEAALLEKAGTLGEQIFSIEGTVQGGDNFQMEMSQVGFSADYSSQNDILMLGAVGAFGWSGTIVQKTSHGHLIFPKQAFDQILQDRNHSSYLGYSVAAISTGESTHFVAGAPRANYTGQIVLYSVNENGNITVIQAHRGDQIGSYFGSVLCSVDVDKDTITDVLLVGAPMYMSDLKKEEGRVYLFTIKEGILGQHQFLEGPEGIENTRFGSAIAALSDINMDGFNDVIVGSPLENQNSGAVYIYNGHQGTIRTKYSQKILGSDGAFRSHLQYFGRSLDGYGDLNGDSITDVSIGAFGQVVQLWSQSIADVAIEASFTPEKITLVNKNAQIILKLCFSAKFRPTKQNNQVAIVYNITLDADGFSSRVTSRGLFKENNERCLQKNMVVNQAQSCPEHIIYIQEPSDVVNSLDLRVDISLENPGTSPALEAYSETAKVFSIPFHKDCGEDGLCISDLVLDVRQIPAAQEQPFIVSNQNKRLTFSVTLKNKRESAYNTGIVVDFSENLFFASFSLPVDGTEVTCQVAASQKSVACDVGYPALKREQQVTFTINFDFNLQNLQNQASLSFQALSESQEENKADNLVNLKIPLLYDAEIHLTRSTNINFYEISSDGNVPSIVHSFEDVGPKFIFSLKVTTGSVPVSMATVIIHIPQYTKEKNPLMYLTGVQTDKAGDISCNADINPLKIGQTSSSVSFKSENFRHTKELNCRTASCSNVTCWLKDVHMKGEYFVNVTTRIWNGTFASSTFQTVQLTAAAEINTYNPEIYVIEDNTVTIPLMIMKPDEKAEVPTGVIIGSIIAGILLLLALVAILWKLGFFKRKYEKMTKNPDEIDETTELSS
UniProt P30101, residues 25-505: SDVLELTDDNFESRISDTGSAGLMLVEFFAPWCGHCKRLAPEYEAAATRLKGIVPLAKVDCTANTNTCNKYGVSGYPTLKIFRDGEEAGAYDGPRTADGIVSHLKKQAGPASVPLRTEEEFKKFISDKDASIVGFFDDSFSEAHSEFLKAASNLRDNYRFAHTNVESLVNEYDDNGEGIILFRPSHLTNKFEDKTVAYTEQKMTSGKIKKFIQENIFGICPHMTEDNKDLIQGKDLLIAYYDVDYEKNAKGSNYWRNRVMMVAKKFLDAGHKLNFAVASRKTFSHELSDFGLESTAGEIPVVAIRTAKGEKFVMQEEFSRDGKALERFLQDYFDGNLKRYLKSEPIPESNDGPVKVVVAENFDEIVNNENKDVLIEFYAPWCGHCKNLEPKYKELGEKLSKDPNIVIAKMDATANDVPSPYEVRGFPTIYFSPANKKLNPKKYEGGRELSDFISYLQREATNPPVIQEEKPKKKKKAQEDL
UniProt Q709C8: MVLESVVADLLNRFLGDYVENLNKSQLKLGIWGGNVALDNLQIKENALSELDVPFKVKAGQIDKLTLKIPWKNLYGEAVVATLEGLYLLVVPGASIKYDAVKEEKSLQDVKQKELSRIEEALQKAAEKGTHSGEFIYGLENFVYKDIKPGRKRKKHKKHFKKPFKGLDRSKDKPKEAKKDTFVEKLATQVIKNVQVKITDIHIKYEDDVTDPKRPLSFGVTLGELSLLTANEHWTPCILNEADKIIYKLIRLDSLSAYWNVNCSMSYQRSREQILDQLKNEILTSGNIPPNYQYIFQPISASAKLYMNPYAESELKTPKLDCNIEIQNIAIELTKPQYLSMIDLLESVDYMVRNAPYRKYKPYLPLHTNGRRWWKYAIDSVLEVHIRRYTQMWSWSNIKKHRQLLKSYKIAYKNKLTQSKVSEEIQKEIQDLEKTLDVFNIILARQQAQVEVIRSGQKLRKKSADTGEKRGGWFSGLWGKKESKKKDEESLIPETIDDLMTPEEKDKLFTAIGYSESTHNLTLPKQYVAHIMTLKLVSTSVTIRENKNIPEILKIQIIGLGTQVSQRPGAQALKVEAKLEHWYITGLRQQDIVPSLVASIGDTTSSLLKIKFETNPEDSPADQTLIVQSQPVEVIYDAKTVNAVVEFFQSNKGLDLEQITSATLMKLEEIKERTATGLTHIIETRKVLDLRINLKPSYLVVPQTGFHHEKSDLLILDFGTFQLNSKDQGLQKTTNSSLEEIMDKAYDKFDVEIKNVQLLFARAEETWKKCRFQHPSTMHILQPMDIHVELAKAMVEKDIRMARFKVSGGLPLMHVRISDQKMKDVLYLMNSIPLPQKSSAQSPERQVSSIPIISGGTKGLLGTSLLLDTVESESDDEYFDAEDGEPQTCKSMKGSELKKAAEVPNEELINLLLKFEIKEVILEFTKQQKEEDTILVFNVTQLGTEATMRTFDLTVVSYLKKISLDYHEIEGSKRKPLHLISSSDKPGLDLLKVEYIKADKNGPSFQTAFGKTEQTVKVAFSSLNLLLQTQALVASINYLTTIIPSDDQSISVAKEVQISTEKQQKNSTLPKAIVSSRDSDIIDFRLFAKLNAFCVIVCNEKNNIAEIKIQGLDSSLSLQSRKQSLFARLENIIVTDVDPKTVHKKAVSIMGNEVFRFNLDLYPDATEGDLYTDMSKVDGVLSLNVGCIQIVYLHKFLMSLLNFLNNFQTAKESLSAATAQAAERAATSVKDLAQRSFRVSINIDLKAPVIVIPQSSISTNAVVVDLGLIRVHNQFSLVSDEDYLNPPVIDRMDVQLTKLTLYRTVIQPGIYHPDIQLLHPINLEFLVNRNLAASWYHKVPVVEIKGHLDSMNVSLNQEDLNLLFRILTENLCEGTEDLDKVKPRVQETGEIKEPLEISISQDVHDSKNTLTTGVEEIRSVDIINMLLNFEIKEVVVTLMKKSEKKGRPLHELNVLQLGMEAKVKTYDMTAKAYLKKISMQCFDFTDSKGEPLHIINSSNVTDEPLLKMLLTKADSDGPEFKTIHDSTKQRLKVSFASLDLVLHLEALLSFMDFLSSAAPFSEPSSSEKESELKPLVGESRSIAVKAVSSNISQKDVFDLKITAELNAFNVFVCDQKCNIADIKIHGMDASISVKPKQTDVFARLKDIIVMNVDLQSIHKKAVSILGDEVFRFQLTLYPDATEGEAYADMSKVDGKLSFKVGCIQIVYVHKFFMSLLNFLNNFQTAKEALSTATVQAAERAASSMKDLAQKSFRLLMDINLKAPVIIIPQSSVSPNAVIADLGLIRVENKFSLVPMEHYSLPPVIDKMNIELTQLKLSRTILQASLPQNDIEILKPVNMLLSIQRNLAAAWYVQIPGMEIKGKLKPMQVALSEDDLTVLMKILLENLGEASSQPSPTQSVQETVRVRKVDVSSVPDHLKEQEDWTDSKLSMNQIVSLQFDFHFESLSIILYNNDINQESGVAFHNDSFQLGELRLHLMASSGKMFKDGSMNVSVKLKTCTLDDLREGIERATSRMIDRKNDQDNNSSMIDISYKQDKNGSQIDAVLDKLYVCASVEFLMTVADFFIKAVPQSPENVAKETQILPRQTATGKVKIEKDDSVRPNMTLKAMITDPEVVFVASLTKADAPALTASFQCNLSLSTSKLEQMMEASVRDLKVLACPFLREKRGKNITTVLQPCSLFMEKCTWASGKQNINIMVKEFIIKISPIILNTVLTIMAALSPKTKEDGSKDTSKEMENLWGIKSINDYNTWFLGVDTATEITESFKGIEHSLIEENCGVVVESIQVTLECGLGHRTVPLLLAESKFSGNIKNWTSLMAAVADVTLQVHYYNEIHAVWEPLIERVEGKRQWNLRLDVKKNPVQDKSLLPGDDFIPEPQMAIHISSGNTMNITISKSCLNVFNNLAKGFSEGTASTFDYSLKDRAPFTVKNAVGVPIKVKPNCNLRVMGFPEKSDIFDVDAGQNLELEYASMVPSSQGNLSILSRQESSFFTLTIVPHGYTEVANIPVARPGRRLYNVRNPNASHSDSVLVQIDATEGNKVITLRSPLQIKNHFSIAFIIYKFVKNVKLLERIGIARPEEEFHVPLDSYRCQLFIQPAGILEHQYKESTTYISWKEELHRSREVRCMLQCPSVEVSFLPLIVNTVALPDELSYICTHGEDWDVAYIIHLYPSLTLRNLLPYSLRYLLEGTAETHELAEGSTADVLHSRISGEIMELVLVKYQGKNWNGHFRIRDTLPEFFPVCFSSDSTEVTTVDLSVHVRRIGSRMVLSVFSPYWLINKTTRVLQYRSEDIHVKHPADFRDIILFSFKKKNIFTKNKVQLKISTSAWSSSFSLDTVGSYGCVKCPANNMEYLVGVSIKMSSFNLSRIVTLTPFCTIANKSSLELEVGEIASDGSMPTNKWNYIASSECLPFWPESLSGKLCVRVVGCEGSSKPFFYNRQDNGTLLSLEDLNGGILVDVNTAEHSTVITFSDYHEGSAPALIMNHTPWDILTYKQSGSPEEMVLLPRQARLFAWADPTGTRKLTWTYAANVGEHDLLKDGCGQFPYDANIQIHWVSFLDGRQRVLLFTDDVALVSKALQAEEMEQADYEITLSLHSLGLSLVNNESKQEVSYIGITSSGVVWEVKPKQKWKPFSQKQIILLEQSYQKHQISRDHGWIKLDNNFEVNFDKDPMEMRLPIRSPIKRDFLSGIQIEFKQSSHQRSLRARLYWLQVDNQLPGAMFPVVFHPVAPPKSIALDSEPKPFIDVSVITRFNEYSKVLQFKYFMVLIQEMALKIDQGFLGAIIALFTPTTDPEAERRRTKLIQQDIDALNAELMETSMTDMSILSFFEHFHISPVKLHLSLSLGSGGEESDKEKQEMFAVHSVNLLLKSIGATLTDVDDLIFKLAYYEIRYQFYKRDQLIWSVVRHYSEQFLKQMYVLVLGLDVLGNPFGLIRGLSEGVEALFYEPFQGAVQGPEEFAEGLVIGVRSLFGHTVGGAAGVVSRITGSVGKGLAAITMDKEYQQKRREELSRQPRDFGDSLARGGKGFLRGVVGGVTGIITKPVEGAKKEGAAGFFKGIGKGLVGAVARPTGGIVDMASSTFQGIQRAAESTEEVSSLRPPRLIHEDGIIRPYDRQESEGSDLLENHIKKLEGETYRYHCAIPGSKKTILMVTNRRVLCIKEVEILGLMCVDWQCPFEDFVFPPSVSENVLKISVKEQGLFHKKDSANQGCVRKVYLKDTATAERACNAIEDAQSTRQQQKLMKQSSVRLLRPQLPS

B1: RhoGEF and PH domain-containing protein 5 (protein, UniProt Q6ZNL6 1-1462)
chain: MFRGPKPPIAPKPRLTAPNEWRASVYLNDSLNKCSNGRLPCVDRGLDEGPRSIPKCSESETDEDYIVVPRVPLREDEPKDEGSVGNKALVSPESSAEEEEEREEGGEACGLEGTGAGEDSVAPAAPGAGALSREGEEGTDLALEDEGEGCADEPGTLEQVSRSEEEEKLVQPHRECSLEDSGPWAGEGVFQSDLLLPHIHGEDQEPPDTPGEAEEDDEEGCASTDPAGADEGSGPDRPTEDMGQDAEDTSEEPPEKEELAGVQEAETATDCPEVLEEGCEEATGVTGGEQVDLSEPPDHEKKTNQEVAAATLEDHAQDESAEESCQIVPFENDCMEDFVTSLTGSPYEFFPTESTSFCSESCSPLSESAKGLESEQAPKLGLRAEENPMVGALCGQCGSLQGGAAEGPAAPDVVVVLEEEALDDALANPYVMGVGLPGQAAPGEGGQAASDALGGYGSKEELNCEAEGGLVPADRKNTSTRVRPHSGKVAGYVPETVPEETGPEAGSSAPGIGGAAEEVGKTLLSLEGKPLEASRALPAKPRAFTLYPRSFSVEGREIPVSVYQEPEGSGLDDHRIKRKEDNLSLSCVIGSSGSFSQRNHLPSSGTSTPSSMVDIPPPFDLACITKKPITKSSPSLLIESDSPDKYKKKKSSFKRFLALTFKKKTENKLHVDVNVSSSRSSSESSYHGPSRILEVDRRSLSNSPQLKSRTGKLRASESPSSLIFYRDGKRKGVPFSRTVSRVESFEDRSRPPFLPLPLTKPRSISFPSADTSDYENIPAMNSDYENIQIPPRRPARAGAFTKLFEDQSRALSTANENDGYVDMSSFNAFESKQQSADQDAESAYTEPYKVCPISSAAPKEDLTSDEEQRSSEEEDSASRDPSVTHKVEGQSRALVIAQELLSSEKAYVEMLQHLNLDFHGAVMRALDDMDHEGRDTLAREELRQGLSELPAIHDLHQGILEELEERLSNWESQQKVADVFLAREQGFDHHATHILQFDRYLGLLSENCLHSPRLAAAVREFEQSVQGGSQTAKHRLLRVVQRLFQYQVLLTDYLNNLCPDSAEYDNTQGALSLISKVTDRANDSMEQGENLQKLVHIEHSVRGQGDLLQPGREFLKEGTLMKVTGKNRRPRHLFLMNDVLLYTYPQKDGKYRLKNTLAVANMKVSRPVMEKVPYALKIETSESCLMLSASSCAERDEWYGCLSRALPEDYKAQALAAFHHSVEIRERLGVSLGERPPTLVPVTHVMMCMNCGCDFSLTLRRHHCHACGKIVCRNCSRNKYPLKYLKDRMAKVCDGCFGELKKRGRAVPGLMRERPVSMSFPLSSPRFSGSAFSSVFQSINPSTFKKQKKVPSALTEVAASGEGSAISGYLSRCKRGKRHWKKLWFVIKGKVLYTYMASEDKVALESMPLLGFTIAPEKEEGSSEVGPIFHLYHKKTLFYSFKAEDTNSAQRWIEAMEDASVL
B2: Ras GTPase-activating protein-binding protein 2 (protein, UniProt Q9UN86 1-482)
chain: MVMEKPSPLLVGREFVRQYYTLLNKAPEYLHRFYGRNSSYVHGGVDASGKPQEAVYGQNDIHHKVLSLNFSECHTKIRHVDAHATLSDGVVVQVMGLLSNSGQPERKFMQTFVLAPEGSVPNKFYVHNDMFRYEDEVFGDSEPELDEESEDEVEEEQEERQPSPEPVQENANSGYYEAHPVTNGIEEPLEESSHEPEPEPESETKTEELKPQVEEKNLEELEEKSTTPPPAEPVSLPQEPPKAFSWASVTSKNLPPSGTVSSSGIPPHVKAPVSQPRVEAKPEVQSQPPRVREQRPRERPGFPPRGPRPGRGDMEQNDSDNRRIIRYPDSHQLFVGNLPHDIDENELKEFFMSFGNVVELRINTKGVGGKLPNFGFVVFDDSEPVQRILIAKPIMFRGEVRLNVEEKKTRAARERETRGGGDDRRDIRRNDRGPGGPRGIVGGGMMRDRDGRGPPPRGGMAQKLGSGRGTGQMEGRFTGQRR
B3: PRA1 family protein 2 (protein, UniProt O60831 1-178)
chain: MSEVRLPPLRALDDFVLGSARLAAPDPCDPQRWCHRVINNLLYYQTNYLLCFGIGLALAGYVRPLHTLLSALVVAVALGVLVWAAETRAAVRRCRRSHPAACLAAVLAVGLLVLWVAGGACTFLFSIAGPVLLILVHASLRLRNLKNKIENKIESIGLKRTPMGLLLEALGQEQEAGS
B4: Septin-2 (protein, UniProt Q15019 1-361)
chain: MSKQQPTQFINPETPGYVGFANLPNQVHRKSVKKGFEFTLMVVGESGLGKSTLINSLFLTDLYPERVIPGAAEKIERTVQIEASTVEIEERGVKLRLTVVDTPGYGDAINCRDCFKTIISYIDEQFERYLHDESGLNRRHIIDNRVHCCFYFISPFGHGLKPLDVAFMKAIHNKVNIVPVIAKADTLTLKERERLKKRILDEIEEHNIKIYHLPDAESDEDEDFKEQTRLLKASIPFSVVGSNQLIEAKGKKVRGRLYPWGVVEVENPEHNDFLKLRTMLITHMQDLQEVTQDLHYENFRSERLKRGGRKVENEDMNKDQILLEKEAELRRMQEMIARMQAQMQMQMQGGDGDGGALGHHV

Target: S1PR1-WT-miniTurbo (sphingosine 1-phosphate receptor 1, wild type, with miniTurbo fused to the C terminus) (UniProt P21453)
Assay: proximity labelling; miniTurbo-tagged S1PR1-WT or -TM4 in HUVECs; 500 uM biotin, 3 h; biotinylated proteins purified on Tamavidin 2-REV magnetic beads; total (lysate) and biotinylated (eluate) FLNB seen by Western blot

binding, binds:
Filamin B (from UniProt O75369 1-2602)

Target: S1PR1-WT-miniTurbo (sphingosine 1-phosphate receptor 1, wild type, with miniTurbo fused to the C terminus) (UniProt P21453)
Assay: proximity labelling; miniTurbo fused to the C terminus of S1PR1 in HUVECs; 500 uM biotin, 37 °C, 3 h; biotinylated proteins captured on Tamavidin 2-REV magnetic beads, digested on beads, shot-gun LC-MS/MS; three sets in triplicate; hits: identified only in WT samples in at least two sets

binding, binds:
Elongation factor 1-gamma (from UniProt P26641 1-437), Filamin B (from UniProt O75369 1-2602), Integrin alpha-2 (from UniProt P17301 30-1181), Protein disulfide-isomerase A3 (from UniProt P30101 25-505), Vacuolar protein sorting-associated protein 13C (from UniProt Q709C8 1-3753), B1, B2, B3, B4

These are yes or no findings as the source states them, for the method shown. Binding seen in cells or lysates may run through a third protein. Here binding means that the protein was enriched with, or labelled near, the bait; the list need not be complete.
